Measured values published in publication PMC6926483.
Read-outs that look alike come from different tables or passages of the source. Results are given in words; binding and its absence hold for the method and conditions named. In cells and extracts the contact can be indirect. Here binding means that the protein was enriched with, or labelled near, the bait; the list need not be complete. Blank lines part the entries; values can stand above or below the molecule they belong to.

The chains behind the UniProt entries cited, without tags or fusion partners.
UniProt Q8R4H2: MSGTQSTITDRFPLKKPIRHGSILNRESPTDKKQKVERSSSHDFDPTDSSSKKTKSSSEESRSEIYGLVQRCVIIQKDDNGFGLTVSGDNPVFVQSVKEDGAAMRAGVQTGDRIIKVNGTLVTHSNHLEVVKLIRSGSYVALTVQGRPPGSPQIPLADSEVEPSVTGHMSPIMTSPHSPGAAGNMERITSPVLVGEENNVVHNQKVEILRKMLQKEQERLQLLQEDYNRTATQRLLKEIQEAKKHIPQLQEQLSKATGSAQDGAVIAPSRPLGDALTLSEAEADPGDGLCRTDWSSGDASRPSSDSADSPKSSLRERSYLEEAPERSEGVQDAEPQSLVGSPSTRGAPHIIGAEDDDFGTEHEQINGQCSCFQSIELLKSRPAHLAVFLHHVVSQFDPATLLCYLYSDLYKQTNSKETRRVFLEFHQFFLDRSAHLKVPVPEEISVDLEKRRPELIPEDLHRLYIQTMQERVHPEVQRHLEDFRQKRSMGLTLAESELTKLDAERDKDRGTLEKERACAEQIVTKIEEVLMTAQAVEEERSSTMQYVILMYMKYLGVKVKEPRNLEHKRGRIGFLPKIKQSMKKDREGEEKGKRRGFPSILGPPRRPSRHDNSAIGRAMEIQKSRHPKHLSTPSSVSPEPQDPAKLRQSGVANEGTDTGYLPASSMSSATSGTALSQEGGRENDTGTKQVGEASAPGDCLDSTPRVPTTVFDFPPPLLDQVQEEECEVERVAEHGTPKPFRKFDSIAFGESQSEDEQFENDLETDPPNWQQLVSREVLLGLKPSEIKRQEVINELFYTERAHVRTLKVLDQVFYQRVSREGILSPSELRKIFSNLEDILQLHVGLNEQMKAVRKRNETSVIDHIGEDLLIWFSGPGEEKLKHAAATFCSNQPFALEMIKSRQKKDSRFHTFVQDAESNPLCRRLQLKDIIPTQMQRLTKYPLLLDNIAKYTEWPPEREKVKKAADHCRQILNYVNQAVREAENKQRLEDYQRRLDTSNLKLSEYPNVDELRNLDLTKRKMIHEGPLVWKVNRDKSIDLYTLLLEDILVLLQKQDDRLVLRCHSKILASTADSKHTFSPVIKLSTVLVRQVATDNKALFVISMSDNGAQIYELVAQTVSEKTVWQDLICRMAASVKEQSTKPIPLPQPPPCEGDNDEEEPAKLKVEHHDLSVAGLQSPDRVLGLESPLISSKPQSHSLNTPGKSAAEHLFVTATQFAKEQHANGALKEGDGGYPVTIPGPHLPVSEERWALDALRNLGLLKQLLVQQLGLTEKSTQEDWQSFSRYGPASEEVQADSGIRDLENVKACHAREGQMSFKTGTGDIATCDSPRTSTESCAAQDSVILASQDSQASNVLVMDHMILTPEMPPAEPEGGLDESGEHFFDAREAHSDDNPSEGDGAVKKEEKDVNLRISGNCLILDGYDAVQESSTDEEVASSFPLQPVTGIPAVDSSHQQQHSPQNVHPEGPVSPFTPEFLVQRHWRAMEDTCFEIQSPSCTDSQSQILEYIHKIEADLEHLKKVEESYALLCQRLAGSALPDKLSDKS
UniProt Q812A2: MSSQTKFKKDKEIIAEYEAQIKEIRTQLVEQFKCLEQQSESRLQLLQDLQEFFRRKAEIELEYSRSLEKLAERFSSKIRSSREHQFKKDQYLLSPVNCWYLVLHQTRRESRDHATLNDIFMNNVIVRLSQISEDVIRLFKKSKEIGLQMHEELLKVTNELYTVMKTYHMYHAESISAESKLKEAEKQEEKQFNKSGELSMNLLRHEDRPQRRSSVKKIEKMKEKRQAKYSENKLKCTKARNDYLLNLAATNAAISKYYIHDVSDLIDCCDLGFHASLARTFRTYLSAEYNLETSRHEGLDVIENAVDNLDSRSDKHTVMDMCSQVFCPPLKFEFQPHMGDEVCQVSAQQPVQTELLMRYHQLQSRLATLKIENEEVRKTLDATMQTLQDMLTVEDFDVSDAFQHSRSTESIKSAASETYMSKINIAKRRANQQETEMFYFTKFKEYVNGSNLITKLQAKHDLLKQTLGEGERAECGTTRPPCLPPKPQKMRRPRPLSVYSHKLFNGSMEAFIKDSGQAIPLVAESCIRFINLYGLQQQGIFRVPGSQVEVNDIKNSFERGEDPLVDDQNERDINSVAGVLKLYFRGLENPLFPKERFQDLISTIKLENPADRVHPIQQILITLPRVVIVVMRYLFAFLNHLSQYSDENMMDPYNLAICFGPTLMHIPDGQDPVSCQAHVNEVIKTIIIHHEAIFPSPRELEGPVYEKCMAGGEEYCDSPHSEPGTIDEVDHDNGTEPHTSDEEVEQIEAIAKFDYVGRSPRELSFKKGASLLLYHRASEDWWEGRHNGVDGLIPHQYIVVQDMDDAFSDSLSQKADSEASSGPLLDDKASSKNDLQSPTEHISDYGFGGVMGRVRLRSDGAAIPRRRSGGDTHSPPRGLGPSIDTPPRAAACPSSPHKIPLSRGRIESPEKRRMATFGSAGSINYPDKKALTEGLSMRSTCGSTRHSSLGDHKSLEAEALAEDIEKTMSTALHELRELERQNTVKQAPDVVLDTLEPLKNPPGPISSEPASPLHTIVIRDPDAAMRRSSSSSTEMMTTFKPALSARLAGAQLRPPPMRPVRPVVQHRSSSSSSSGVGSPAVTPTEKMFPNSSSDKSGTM
UniProt Q3UU96: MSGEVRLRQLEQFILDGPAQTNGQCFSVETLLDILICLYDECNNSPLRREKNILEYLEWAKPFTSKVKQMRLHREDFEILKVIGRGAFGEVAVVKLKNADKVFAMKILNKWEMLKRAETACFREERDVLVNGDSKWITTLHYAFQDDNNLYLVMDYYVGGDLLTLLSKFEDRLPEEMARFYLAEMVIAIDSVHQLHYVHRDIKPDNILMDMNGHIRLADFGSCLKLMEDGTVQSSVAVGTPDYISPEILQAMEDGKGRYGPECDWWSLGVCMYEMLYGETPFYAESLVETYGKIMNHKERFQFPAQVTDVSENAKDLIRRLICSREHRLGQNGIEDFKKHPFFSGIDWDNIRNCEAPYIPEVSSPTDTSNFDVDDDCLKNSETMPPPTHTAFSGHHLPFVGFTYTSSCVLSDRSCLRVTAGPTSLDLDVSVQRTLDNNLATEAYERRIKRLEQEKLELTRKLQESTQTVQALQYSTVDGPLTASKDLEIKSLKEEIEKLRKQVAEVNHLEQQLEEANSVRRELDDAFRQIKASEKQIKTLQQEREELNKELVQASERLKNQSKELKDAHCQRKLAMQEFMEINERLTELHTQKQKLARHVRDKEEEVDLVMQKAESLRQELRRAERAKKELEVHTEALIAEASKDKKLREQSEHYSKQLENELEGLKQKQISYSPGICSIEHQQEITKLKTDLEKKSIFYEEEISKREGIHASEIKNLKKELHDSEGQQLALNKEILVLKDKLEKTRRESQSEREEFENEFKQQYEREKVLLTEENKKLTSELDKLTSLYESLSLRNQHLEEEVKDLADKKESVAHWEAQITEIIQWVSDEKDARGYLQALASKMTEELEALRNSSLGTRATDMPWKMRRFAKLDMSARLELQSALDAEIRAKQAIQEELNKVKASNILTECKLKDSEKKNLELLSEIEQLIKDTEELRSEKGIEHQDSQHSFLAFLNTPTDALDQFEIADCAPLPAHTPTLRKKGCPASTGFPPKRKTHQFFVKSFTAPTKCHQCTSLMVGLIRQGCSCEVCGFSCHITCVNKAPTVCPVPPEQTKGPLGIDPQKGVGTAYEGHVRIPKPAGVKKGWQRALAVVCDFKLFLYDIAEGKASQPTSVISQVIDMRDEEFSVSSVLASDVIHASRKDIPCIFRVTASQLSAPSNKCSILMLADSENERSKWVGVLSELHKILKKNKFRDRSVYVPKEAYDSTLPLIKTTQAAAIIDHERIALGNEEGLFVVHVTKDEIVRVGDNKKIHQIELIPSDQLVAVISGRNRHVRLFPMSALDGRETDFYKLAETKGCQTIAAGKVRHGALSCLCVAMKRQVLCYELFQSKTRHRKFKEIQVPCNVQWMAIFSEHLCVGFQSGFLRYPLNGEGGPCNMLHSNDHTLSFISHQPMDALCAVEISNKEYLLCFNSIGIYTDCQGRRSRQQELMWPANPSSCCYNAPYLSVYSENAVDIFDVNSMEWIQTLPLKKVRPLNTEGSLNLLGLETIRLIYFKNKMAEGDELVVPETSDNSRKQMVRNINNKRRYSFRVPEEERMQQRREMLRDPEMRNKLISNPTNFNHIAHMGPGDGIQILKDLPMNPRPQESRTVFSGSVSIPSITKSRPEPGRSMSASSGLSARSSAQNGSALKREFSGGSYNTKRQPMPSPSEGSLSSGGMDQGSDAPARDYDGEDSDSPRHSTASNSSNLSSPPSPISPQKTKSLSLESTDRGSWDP

Columns and labels:
[1] = molecular target: T1, glutamate receptor delta-1 (GluD1), endogenous (mouse (endogenous in P15 mouse brain)) (UniProt Q61627); test: affinity purification with mass spectrometry; synaptic membranes from P15 mouse brain (1% CHAPS, 20 mM HEPES pH 7.4, 150 mM NaCl, 5 mM EDTA, 5 mM EGTA); overnight at 4°C with rabbit anti-GluD1 cross-linked to protein G magnetic beads, total rabbit IgG as control; on-bead digestion, LC-MS/MS; three replicates
T1 sequence: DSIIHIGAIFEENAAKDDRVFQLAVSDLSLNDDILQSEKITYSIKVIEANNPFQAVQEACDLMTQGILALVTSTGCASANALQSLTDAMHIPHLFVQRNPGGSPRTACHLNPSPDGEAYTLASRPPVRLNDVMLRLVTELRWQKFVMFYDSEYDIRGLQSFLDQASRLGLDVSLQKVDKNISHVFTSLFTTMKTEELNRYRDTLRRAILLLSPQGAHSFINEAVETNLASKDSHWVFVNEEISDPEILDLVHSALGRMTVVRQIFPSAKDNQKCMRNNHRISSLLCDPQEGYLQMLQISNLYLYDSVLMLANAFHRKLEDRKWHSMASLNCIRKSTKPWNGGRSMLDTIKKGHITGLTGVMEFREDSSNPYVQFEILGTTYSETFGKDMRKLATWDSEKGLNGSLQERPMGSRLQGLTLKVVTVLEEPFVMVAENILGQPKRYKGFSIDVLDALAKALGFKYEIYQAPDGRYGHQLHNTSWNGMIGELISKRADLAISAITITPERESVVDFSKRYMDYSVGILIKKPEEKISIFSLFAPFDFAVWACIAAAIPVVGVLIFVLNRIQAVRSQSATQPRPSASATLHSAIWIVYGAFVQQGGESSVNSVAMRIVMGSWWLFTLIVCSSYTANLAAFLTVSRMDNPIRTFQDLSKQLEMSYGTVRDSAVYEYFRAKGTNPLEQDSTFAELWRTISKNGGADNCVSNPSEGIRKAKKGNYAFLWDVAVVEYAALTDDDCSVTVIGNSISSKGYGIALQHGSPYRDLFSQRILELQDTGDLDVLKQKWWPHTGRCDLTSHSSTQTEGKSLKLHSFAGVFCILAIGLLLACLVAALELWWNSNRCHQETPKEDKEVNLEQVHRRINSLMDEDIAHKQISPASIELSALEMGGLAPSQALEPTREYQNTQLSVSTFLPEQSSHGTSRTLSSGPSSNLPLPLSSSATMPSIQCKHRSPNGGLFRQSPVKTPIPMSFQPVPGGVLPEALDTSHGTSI

[2] = molecular target: T1, glutamate receptor delta-1 (GluD1), endogenous (mouse (endogenous in P15 mouse brain)); test: as above; remark: listed apart in the source

Molecule: rho guanine nucleotide exchange factor 12 (ARHGEF12) (from UniProt Q8R4H2 1-1543)
- binding [1]: binds

Molecule: Slit-Robo Rho GTPase-activating protein 3 (SRGAP3) (from UniProt Q812A2 1-1099)
- binding [1]: binds

Molecule: serine/threonine protein kinase MRCKα (from UniProt Q3UU96 1-1719) (enzyme)
- binding [1]: binds

B1: protein phosphatase 1 regulatory subunit 12A (PPP1R12A) (protein, UniProt Q9DBR7 1-1029)
chain: MKMADAKQKRNEQLKRWIGSETDLEPPVVKRQKTKVKFDDGAVFLAACSSGDTDEVLKLLHRGADINYANVDGLTALHQACIDDNVDMVKFLVENGANINQPDNEGWIPLHAAASCGYLDIAEFLIGQGAHVGAVNSEGDTPLDIAEEEAMEELLQNEVNRQGVDIEAARKEEERVMLRDARQWLNSGHISDVRHAKSGGTALHVAAAKGYTEVLKLLIQAGYDVNIKDYDGWTPLHAAAHWGKEEACRILVDNLCDMETVNKVGQTAFDVADEDILGYLEELQKKQTLLHSEKRDKKSPLIESTANMENNQPQKAFKNKETLIIEPEKNASRIESLEHEKADEEEEGKKDESSCSSEEDEEDDSESEAETDKTKPMASVSNAHTSSTQAAPAAVTAPTLSSNQGTPTSPVKKFPISTTKISPKEEERKDESPASWRLGLRKTGSYGALAEISASKEAQKEKDTAGVMRSASSPRLSSSLDNKEKEKDNKGTRLAYVTPTIPRRLASTSDIEEKENRESSSLRTSSSYTRRKWEDDLKKNSSINEGSTYHRSCSFGRRQDDLISCSVPSTTSTPTVTSAAGLQRSLPSSTSTAAKTPPGSSSAGTQSSTSNRLWAEDSTEKEKDSAPTAVTIPVAPTVVNAAAPSTTTLTTTTAGTVSEVRERRRSYLTPVRDEESESQRKARSRQARQSRRSTQGVTLTDLQEAEKTIGRSRSTRTREQENEEKEKEEKEKQDKEKQEEKKESEASREDEYKQKYSRTYDETYTRYRPVSTSSSSAPSSSSLSTLGSTLYASSQLNRPNSLVGITSAYSRGLAKENEREGEKKEEEKEGEDKSQPKSIRERRRPREKRRSTGVSFWTQDSDENEQERQSDTEDGSSKRETQTDSVSRYDSSSTSSSDRYDSLLGRSASYSYLEDRKPYSSRLEKDDSTDFKKLYEQILAENEKLKAQLHDTNMELTDLKLQLEKATQRQERFADRSQLEMEKRERRALERRISEMEEELKMLPDLKADNQRLKDENGALIRVISKLSK
- binding [2]: binds

B2: SRCIN1 (p140cap) (protein, UniProt Q9QWI6 1-1250)
chain: MQPWQCLRRFALAWWERTAEGRARSPREEVGPRDPGGRGEPDPERSSPPMLSADDAEYPREYRTLGGGGGGGSGGRRFSNVGLVHTSERRHTVIAAQSLEALSGLQKADADRKRDAFMDHLKSKYPQHALALRGQQDRMREQVGGWTVDPVCLLSSLCSHLHGDSTPSGAGQPAQQPNYWSFKTRSSRHTQGAQPGLADQAAKLSYASAESLETMSEAELPLGFSRMNRFRQSLPLSRSASQTKLRSPGVLFLQFGEETRRVHITHEVSSLDTLHALIAHMFPQKLTMGMLKSPNTAILIKDEARNVFYELEDVRDIQDRSIIKIYRKEPLYAAFPGSHLTNGDLRREMVYASRESSPTRRLNNLSPASHLASSSPPPGLPSGLPSGLPSGSPSRSRLSYAGGRPPSYAGSPVHHAAERLGGAPTGQGVSPSPSAILERRDVKPDEDLAGKAGGMVLVKGEGLYADPYGLLHEGRLSLAAAAETHSHTRARAACTSGVPCALSAPTPLPRCSPTWRTRCTRRALAALYGDGYGFRLPPSSPQKLADVSAPSGGPPPPHSPYSGPPSRGSPVRQSFRKDSGSSSVFAESPGGKARSTGSASTAGAPPSELFPGPGERSLVGFGPPVPAKDTETRERMEAMEKQIASLTGLVQSALLRGSEPETPSEKVEGSNGAATPSAPVCGSGSKSSGATPVSGPPPPSASSTPAGQPTAVSRLQMQLHLRGLQNSASDLRGQLQQLRNVQLQNQESVRALLKPTEADVSMRVSEAARRQEDPLQRQRTLVEEERLRYLNDEELITQQLNDLEKSVEKIQRDVAHNHRLMPGPELEEKALVLKQLGETLTELKAHFPGLQSKMRVVLRVEVEAVKFLKEEPQRLDGLLKRCRGVTDTLAQIRRQVDEGMWPPPNNLLNQSPKKVAAETDFSKGLDFEIPPPSPPLNLHELSGPAEGTPLTPKSTNPTKCLDASSKRNTDKAVSVEAAERDWEEKRAALTQYSAKDINRLLEETQAELLKAIPDLDCASKTHPGPAPTPDHKPPKAPHGQKAAPRTEPSGRRGSDELTVPRYRTEKPSKSPPPPPPRRSFPSSHGLTTTRTGEVVVTSKKDSVFIKKAESEELEVQKPQVKLRRAVSEVVRPASTPPIMASAIKDEDDEERIIAELESGGSSVPPMKVVTPGASRLKAAQGPAGSPDKGKHGKQRTEYMRIQAQQQATKPSKEVSGPNETSSPGSEKPSGSRTSIPVLTSFGARNSSISF
- binding [2]: binds

The remaining lines, values ahead:

- binding [1]: binds
Molecule: Slit-Robo Rho GTPase-activating protein 2 (SRGAP2) (from UniProt Q91Z67 1-1071)

- binding [1]: binds
Molecule: Rho GTPase-activating protein 32 (ARHGAP32/PX-RICS) (from UniProt Q811P8-1 1-2089)
